From patent US6670136 (TRUSTEES OF COLUMBIA UNIVERSITY IN THE CITY OF NEW YORK, dated 2003)
No constants are given. Whether binding was seen depends on the method and setting. Some binding calls cover weakened binding; strength is not graded here.

Chains of the proteins cited; added tags and fusions are not shown. Residues count along the entry.
UniProt Q15109, residues 23-342: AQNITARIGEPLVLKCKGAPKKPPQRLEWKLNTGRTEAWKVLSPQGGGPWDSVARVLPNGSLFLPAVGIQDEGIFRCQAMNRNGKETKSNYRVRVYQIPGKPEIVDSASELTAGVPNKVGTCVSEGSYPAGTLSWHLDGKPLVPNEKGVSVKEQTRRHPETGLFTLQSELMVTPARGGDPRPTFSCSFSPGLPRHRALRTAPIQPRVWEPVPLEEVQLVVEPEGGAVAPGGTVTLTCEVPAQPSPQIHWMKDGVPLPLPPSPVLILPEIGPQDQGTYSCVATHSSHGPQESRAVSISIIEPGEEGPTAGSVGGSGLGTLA
UniProt Q62151, residues 23-402: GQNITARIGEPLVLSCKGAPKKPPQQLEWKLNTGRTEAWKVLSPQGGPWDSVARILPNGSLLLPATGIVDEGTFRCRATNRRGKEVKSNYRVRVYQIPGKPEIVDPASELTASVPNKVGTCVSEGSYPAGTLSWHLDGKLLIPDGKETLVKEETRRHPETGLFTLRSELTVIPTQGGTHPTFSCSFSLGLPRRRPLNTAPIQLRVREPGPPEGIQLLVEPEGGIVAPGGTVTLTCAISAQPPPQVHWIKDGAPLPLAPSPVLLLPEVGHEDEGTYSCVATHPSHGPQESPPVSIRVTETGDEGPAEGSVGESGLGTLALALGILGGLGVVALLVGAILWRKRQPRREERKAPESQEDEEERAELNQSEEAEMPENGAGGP
UniProt P10103, residues 2-215: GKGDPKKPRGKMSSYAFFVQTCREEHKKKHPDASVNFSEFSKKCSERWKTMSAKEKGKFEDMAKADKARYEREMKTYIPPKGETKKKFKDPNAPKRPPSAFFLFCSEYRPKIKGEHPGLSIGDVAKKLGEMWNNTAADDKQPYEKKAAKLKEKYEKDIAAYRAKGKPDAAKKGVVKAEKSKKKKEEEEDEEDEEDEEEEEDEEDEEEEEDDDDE

B1: EN-RAGE (Extracellular Novel RAGE binding protein), recombinant bovine, expressed in Sf9 cells (ligand)
chain: TKLEDHLEGIINIFHQYSVRVGHFDTLNKRELKQLITKELPKTLQNTKDQPTIDKIFQDLDADKDGAVSFEEFVVLVSRVLKTAHIDIHK
notes: Recombinant protein made from a bovine lung cDNA in baculovirus/Sf9; In the cell assays it was unlabelled; also called radiolabelled EN-RAGE

What was measured:
[1] = target: human soluble RAGE (sRAGE), prepared from a baculovirus expression system (human) (UniProt Q15109); experiment: elution from Affi-gel with adsorbed RAGE; radioligand binding assay with 125I-sRAGE
[2] = target: RAGE on macrophage-like BV2 cells (macrophage (MP) RAGE) (UniProt Q62151); experiment: radioligand binding on BV2 cells, data not shown

Molecule	binding [1]	binding [2]
amphoterin, ≈23 kDa polypeptide eluted from the RAGE column (bovine lung extract) (from UniProt P10103 2-215) (ligand)	binds	
B1		binds
